The source of these data is patent publication US20140072662A1, “Andrographis Paniculata Compositions and Methods for Treatment of Addictions” (Omeros Corporation, priority 2012, published 2014).

The test system of this data set is msP rats. Put plainly: Two-bottle choice paradigm, voluntary 10% alcohol intake in msP rats. In kind it is in vivo, rat. Conditions: andrographolide 5 and 10 mg/kg i.p.; for food consumption: 0.5, 2, 8 and 24 hours. An excerpt:
Male genetically selected alcohol-preferring rats were used. They were bred at the Department of Experimental Medicine and Public Health of the University of Camerino (Marche, Italy) for 64 generations from Sardinian alcohol-preferring (sP) rats of the 13th generation, provided by the Department of Neurosciences of the University of Cagliari (Colombo et al, 2006). They are referred to as Marchigian sP (msP) rats (Ciccocioppo et al, 2006). At the time of the experiments their body weight ranged between 300 and 350 g. They were kept in single cages in a room with a reverse 12:12 h light/dark cycle (lights off at 9:30 a.m.), temperature of 20-22° C. and humidity of 45-55%. Rats were offered free access to tap water and food pellets (4RF18, Mucedola, Settimo Milanese, Italy), except when noted. All the procedures were conducted in adherence with the European Community Council Directive for Care and Use of Laboratory Animals and the National Institutes of Health Guide for the Care and Use of Laboratory Animals.
A widely used method for testing fluid preference is the two-bottle choice paradigm, in which water and 10% (v/v) alcohol solution were offered in graduated drinking tubes equipped with metallic drinking spouts and their consumption was measured by reading the volume consumed from the graduated tubes. Food intake was measured by weighing the food containers and taking into account spillage. Alcohol, water and food intakes are expressed as g/kg to reduce the influence of differences in body weight.
To assess the effect of A. paniculata on voluntary alcohol intake, the inventor used the two-bottle choice paradigm in Marchigian Sardinian (msP) rats, a validated animal model of alcohol abuse (Ciccocioppo et al, 2006; Hansson et al, 2006). […]
Alcohol, water and food intake were monitored daily at 0.5, 2, 8 and 24 hours. For all the experiments performed, intakes were recorded for several additional days after the end of the drug treatment period. […]

For `C=C1CC[C@@H]2[C@](C)(CO)[C@H](O)CC[C@@]2(C)[C@@H]1C/C=C1/C(=O)OC[C@H]1O` [andrographolide], the water consumption entry was “not modified” and the food consumption result is reported as “not statistically significant”. Besides, the food consumption result (listed as Andrographolide) is on record as “not modified”.
